No constants are given. Whether binding was seen depends on the method and setting. Binding can be weak; no strength is given.
Molecular target: Rv2315c, spotted on the Mtb proteome microarray (Mycobacterium tuberculosis) (UniProt P71897)
Assay: peptide or protein array

## recombinant human GSDMD protein (from UniProt P57764 1-484)
  binding: binds
